# Assay results published in the supplement of paper PMC10689618.
# The other results are listed elsewhere or left out. Many values rest on one well or one pass, so single values are uncertain.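 Labelled rat cortical synaptosomes were engulfed by primary human fetal astrocytes. Engulfment equaled a red/green ratio, corrected for calcein live-cell signal and normalized to the plate median. Compounds were toxic when calcein dropped over 30%, and reduced phagocytosis when below 70% of the median above 5 µM.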
# Tests used:
# [1] = system: Human fetal astrocytes; assay: loss of total cells relative to no-compound high-control median (toxicity); higher = more toxic (fewer cells); details: 24 h
# [2] = system: Human fetal astrocytes; assay: synaptosome phagocytosis (pHrodo/calcein intensity ratio) relative to plate median of data wells; higher = more phagocytosis; details: 24 h
SMILES,loss of total cells ([1]; 1.39 µM) [%],loss of total cells ([1]; 2.78 µM) [%],loss of total cells ([1]; 5.56 µM) [%],loss of total cells ([1]; 11.11 µM) [%],loss of total cells ([1]; 22.22 µM) [%],synaptosome phagocytosis ([2]; 1.39 µM) [%],synaptosome phagocytosis ([2]; 2.78 µM) [%],synaptosome phagocytosis ([2]; 5.56 µM) [%],synaptosome phagocytosis ([2]; 11.11 µM) [%],synaptosome phagocytosis ([2]; 22.22 µM) [%]
N#C/C(=C\c1ccc(O)cc1)C(=O)O [alpha-CYANO-4-HYDROXYCINNAMIC ACID],16.2,8.3,-0.7,10.5,9.8,96.3,118,119,101,128
"Oc1cccc2cccnc12 [Benzoic acid, 2-hydroxy-, compd. with 8-quinolinol (1:1)]",-11,-16.6,23.7,40.6,44.7,130,122,63.3,36.1,35
CC(=O)OC1CCC23C(=O)OC45CCC(C6=CC(=O)OC6)C4(C)CCC2C5CCC3(O)C1 (stereo not given),19.1,19.9,18.8,19.7,12.1,79.4,74.5,49.9,43.3,48.4
COc1cc(OC)c(OC)cc1C=O,10.5,8,-7.6,29.7,-2.6,116,111,111,130,103
CCOC(=O)c1cncn1[C@H](C)c1ccccc1,-33.9,-35.7,-0.6,16.7,-13.4,114,93.5,90.1,119,96.6
O=c1cccc2n1CC1CC2CN2CCCC[C@@H]12 (stereo not given in full),-34.4,-0.4,2.9,6.8,-0.7,61.8,90.3,105,93.1,77.9
CC(C)(C)NCC(O)c1cc(Cl)c(N)c(Cl)c1 (stereo not given),11.2,5.4,11.6,7.9,18.2,110,96.6,107,85.7,79.5
CCC(C)C(=O)O[C@@H]1C[C@@]2(C)[C@H](c3ccoc3)OC(=O)CC23OC2(C)O[C@]14[C@]1(C)[C@@H](CC(=O)OC)C5(C)CC1(O)[C@](O)(C5OC(=O)C1(C)OC1C)[C@@H](OC(C)=O)[C@]34O2 (stereo not given in full),-3.3,12,34.4,-3.2,33.7,110,103,133,98.1,126
C[C@]12CC[C@H]3[C@@H](CCC4=CC(=O)CC[C@@]43C)[C@@H]1CC[C@H]2O,-15.6,0.4,5.9,27,2.2,66.5,117,117,125,140
COC1=C[C@@H]2[C@@H]3Cc4ccc(OC)c(O)c4[C@]2(CCN3C)CC1=O,3.2,-1.8,11.6,8.8,2.3,70.8,97.2,73.3,51.8,88.4
COC(=O)C(c1ccccc1)C1CCCCN1 (stereo not given),12.7,-2.7,21.4,-3.2,16.7,129,94.1,158,94.3,103
C[C@]12CCC(=O)C=C1CCc1ccc(O)cc12,4.7,8,21.4,31.6,28.5,112,110,95.7,88.1,147
